Results are given in words; binding and its absence hold for the method and conditions named. Binding seen in cells or lysates may run through a third protein. Some results given as binding are weak or reduced against the parent protein; the word gives no strength.
How the values were obtained:
[1] = target: Wwp2 (WW domain-containing protein 2), full-length, flag- or myc-tagged (mouse) (UniProt Q9DBH0); test: co-IP; HEK293T cells transfected with plasmids and treated with MG132 (10 uM, 7 h); lysis buffer 25 mM Tris/HCl pH 7.4, 150 mM NaCl, 1% NP-40, 1 mM EDTA, 5% glycerol; lysates treated with anti-myc-tag antibody and protein A; western blot
[2] = target: myc-Wwp2 transduced into the ATDC5 chondrogenic cell line (mouse) (UniProt Q9DBH0); test: co-IP; ATDC5 cells transduced with retroviral myc-Wwp2; anti-myc-tag antibody; endogenous Runx2 detected by western blot

The chains behind the UniProt entries cited, without tags or fusion partners. Where a name states a change or a piece, a line headed by the entry shows the natural chain unless it says otherwise. A line that says so, or that is headed by a name, gives the form on record, which may keep a tag or linker. Residues count along the entry.
UniProt Q9DBH0: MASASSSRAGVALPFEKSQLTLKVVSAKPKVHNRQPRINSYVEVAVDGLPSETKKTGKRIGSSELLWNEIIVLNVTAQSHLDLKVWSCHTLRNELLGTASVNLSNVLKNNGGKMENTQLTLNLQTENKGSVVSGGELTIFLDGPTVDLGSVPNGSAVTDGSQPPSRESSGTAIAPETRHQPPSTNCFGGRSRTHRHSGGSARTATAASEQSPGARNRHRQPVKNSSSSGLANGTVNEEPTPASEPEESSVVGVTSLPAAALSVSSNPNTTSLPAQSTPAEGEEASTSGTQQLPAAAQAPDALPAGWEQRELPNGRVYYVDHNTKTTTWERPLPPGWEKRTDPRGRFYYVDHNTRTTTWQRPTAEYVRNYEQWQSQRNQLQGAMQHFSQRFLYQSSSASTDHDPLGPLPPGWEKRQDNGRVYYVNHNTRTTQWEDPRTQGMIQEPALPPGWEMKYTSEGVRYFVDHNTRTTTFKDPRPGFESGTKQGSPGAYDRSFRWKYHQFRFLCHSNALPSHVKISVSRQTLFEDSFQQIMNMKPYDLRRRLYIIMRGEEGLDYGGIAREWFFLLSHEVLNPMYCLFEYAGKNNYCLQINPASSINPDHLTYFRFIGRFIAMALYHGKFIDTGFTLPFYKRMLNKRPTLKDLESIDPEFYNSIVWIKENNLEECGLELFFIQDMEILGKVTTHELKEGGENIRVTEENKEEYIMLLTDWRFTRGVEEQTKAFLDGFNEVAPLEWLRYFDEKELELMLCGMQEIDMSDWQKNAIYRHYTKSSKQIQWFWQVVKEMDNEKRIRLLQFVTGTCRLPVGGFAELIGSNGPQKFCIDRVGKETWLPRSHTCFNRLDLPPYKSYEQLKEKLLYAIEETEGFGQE
UniProt Q08775: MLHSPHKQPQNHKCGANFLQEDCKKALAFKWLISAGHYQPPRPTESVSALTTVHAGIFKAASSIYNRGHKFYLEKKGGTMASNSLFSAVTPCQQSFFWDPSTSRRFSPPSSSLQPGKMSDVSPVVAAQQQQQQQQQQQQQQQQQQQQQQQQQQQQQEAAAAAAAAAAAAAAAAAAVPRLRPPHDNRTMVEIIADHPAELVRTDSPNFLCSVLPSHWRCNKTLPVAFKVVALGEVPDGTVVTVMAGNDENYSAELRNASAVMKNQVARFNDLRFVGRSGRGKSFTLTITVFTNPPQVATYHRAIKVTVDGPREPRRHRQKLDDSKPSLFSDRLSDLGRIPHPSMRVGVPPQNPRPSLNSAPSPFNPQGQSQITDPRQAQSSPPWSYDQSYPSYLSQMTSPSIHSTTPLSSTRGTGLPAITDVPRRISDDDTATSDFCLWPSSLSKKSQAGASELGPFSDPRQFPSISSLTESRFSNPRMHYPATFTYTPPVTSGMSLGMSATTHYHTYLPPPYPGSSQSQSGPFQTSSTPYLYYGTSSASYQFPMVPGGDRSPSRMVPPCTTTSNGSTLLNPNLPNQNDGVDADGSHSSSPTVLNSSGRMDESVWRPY
Runx2 (Runt-related transcription factor 2), full-length, myc- or flag-tagged: residues 80-607 of Q08775

| Substance | binding [1] | binding [2] |
| --- | --- | --- |
| Runx2 (Runt-related transcription factor 2), full-length, myc- or flag-tagged (from UniProt Q08775-5 1-528) | binds | – |
| endogenous Runx2 protein of ATDC5 cells (from UniProt Q08775 1-607) | – | binds |

Reference: publication PMC6546747
